# Screening data

From PubChem BioAssay record AID1224904 (Broad Institute, 2016).

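293T-iDUX4 dual-reporter cells; luminescence of the tet-on Italica luciferase control is read after 24 h. The test concentration is not given here. Percent change in the Italica control signal; more negative values mean stronger inhibition, which points to nonspecific, tet-on or cytotoxic effects.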

Values are in %. Common to all entries: measured here: Italica tet-on control reporter. Part of the compounds only, not a random draw; the main read-out is not listed here.

O=C(c1ccccc1)N1CC(=O)N2[C@H](CO)[C@@H](c3ccc(/C=C/c4ccccc4)cc3)[C@@H]2C1 gave activity change -9.112%. CN1c2ccc(-c3ccc(C#N)cc3)cc2[C@@H]2[C@@H](CCN2C(=O)CC2CC2)[C@H]1CO read activity change -12.33%. For CCCNC(=O)N1[C@H](CO)[C@H](c2ccccc2-c2ccc(C)cc2)[C@@H]1C#N the result was activity change -43.24%. N#Cc1ccc(-c2ccc([C@@H]3[C@H]4CN(C(=O)C5CCCCC5)CC(=O)N4[C@H]3CO)cc2)cc1 read activity change -11.75%. With COc1ccc2c3c([nH]c2c1)[C@H](CO)N(Cc1ccccc1OC)CC31CN(S(C)(=O)=O)C1 the assay gave activity change -20.43%. For CCC(=O)N1CC(=O)N2[C@H](C1)[C@@H](c1ccc(C#Cc3cccc(F)c3)cc1)[C@@H]2CO the result was activity change -8.766%.

For COc1ccccc1C#Cc1ccc([C@H]2[C@@H](CO)N3CCCCN(CCC(F)(F)F)C[C@@H]23)cc1 the result was activity change -5.664%. For COc1ccc(CN2CC3(CN(C(=O)C4CCC4)C3)c3c(n(C)c4cc(OC)ccc34)[C@H]2CO)cc1 the result was activity change -1.972%. Result for OC[C@@H]1Nc2ccc(C#Cc3ccccc3)cc2[C@H]2[C@@H]1CCN2Cc1nccs1 was activity change -6.237%. COc1ccc2c3c(n(C)c2c1)[C@@H](CO)NCC31CCN(Cc2cc(F)ccc2F)CC1 gave activity change -52.63%. Result for O=C(c1cnccn1)N1CC(=O)N2[C@H](CO)[C@@H](c3ccc(C#CCc4ccccc4)cc3)[C@@H]2C1 was activity change -16.41%. With COc1ccccc1NC(=O)Nc1ccc2c(c1)OC[C@@H](C)N(Cc1ccccc1Cl)C[C@@H](C)[C@H](OC)CN(C)C2=O the assay gave activity change -9.907%.

For COc1ccc(CN2C[C@H](C)[C@H](OC)CN(C)C(=O)c3cc(NC(=O)c4nc5ccccc5s4)ccc3OC[C@@H]2C)cc1 the result was activity change -6.914%. For O=C(Nc1ccccc1)N1CC(=O)N2[C@@H](CO)[C@H](c3ccc(C#CC4CCCCC4)cc3)[C@@H]2C1 the result was activity change -28.58%. For C[C@@H]1CN([C@@H](C)CO)C(=O)CCCn2nncc2CO[C@@H]1CN(C)Cc1ccc(C(=O)Nc2ccccc2N)cc1 the result was activity change 3.628%. O=C(C[C@H]1CC[C@@H]2[C@H](COC[C@H](O)CN2Cc2cccc(C(F)(F)F)c2)O1)NCCc1ccccc1 read activity change -8.143%. With O=C(Cc1ccccn1)NCC[C@@H]1CC[C@H](NC(=O)Nc2ccc(C(F)(F)F)cc2)[C@H](CO)O1 the assay gave activity change -94.36%. For COc1ccc2c3c([nH]c2c1)[C@H](CO)N(C(=O)Nc1ccc(F)cc1)CC31CN(C(=O)Cc2ccccc2)C1 the result was activity change -8.431%.

COc1ccc(C#Cc2ccc([C@@H]3[C@H](CO)N4CCCCN(S(=O)(=O)c5ccccc5)C[C@@H]34)cc2)cc1 gave activity change -0.792%. O=C(c1ccc2c(c1)OCO2)N1CC[C@@H]2[C@@H](CO)Nc3ccc(-c4ccc(F)cc4)cc3[C@@H]21 gave activity change -23.58%. For N#C[C@H]1[C@H](c2ccccc2C2=CCCCC2)[C@H](CO)N1S(=O)(=O)c1ccccc1 the result was activity change -15.96%. For O=C(C[C@H]1CC[C@@H]2[C@H](COC[C@H](O)CN2Cc2ccccc2F)O1)N[C@H]1CCN(Cc2ccccc2)C1 the result was activity change -21.45%. COc1ccccc1CN1[C@H](CO)[C@@H](c2ccccc2)C12CN(C(=O)Cc1ccccc1)C2 gave activity change -11.99%. CC(C)NC(=O)N1[C@H](CO)[C@@H](c2ccccc2)C12CN(Cc1ccc(Cl)cc1)C2 gave activity change -18.69%.

For N#Cc1ccc(-c2ccc3c(c2)[C@@H]2[C@@H](CCN2C(=O)C2CCCCC2)[C@@H](CO)N3)cc1 the result was activity change 5.956%. N#C[C@H]1[C@H](c2ccccc2-c2cccc(F)c2)[C@@H](CO)N1C(=O)NC1CCCCC1 read activity change -32.19%. For O=C(c1cccc(F)c1)N1CCCCN2[C@H](C1)[C@H](c1ccc(C#CC3(O)CCCC3)cc1)[C@@H]2CO the result was activity change -1.337%. Result for COc1ccccc1C#Cc1ccc2c(c1)[C@H]1NCC[C@H]1[C@@H](CO)N2 was activity change -28.21%. With CCc1sc(N2[C@@H](C#N)[C@@H](c3ccccc3-c3ccc(F)cc3)[C@@H]2CO)nc1C the assay gave activity change -12.05%. COc1ccc2c3c(n(C)c2c1)[C@H](CO)N(C(=O)c1cccc(F)c1)CC31CCN(C(=O)c2cccc(F)c2)CC1 read activity change -31.09%.

For O=C(C[C@H]1CC[C@@H]2[C@H](COC[C@@H](O)CN2Cc2cccc(C(F)(F)F)c2)O1)NCCc1ccccc1 the result was activity change -14.96%. COc1ccc(-c2ccc3c(c2)[C@@H]2[C@@H](CCN2C(=O)C2CCCCC2)[C@@H](CO)N3C)cc1 gave activity change -69.37%. For O=C(C[C@@H]1CC[C@H]2[C@@H](COC[C@@H](O)CN2Cc2ccccc2F)O1)N[C@H]1CCN(Cc2ccccc2)C1 the result was activity change -40.46%. For COc1cccc(CN(C)C[C@H]2OCc3ccccc3-c3c(n(C)c4ccccc34)C(=O)N([C@@H](C)CO)C[C@H]2C)c1 the result was activity change -31.39%. Result for OC[C@@H]1[C@@H](c2ccc(-c3ccc(F)cc3)cc2)[C@@H]2CN(CCC(F)(F)F)CCCCN12 was activity change -21.77%. O=C(C[C@H]1C[C@H]2c3cc(NC(=O)c4ccc5c(c4)OCO5)ccc3O[C@H]2[C@H](CO)O1)NCc1ccc(Oc2ccccc2)cc1 read activity change -95.11%.

CC(C)[C@@H](C)NC(=O)N(C)C[C@@H]1OCc2ccccc2-c2c(n(C)c3ccccc23)C(=O)N([C@H](C)CO)C[C@@H]1C read activity change -22.4%.

For reference, 4 entries once more:

- O=C(C[C@@H]1CC[C@H]2[C@@H](COC[C@@H](O)CN2Cc2ccccc2F)O1)N[C@H]1CCN(Cc2ccccc2)C1 : activity change -40.46%
- CCCNC(=O)N1[C@H](CO)[C@H](c2ccccc2-c2ccc(C)cc2)[C@@H]1C#N : activity change -43.24%
- OC[C@@H]1[C@@H](c2ccc(-c3ccc(F)cc3)cc2)[C@@H]2CN(CCC(F)(F)F)CCCCN12 : activity change -21.77%
- COc1ccccc1NC(=O)Nc1ccc2c(c1)OC[C@@H](C)N(Cc1ccccc1Cl)C[C@@H](C)[C@H](OC)CN(C)C2=O : activity change -9.907%